The list is a part of this screen's results and no random one: it is rich in T/C values a quarter to a half above the control, in often repeated tests (any T/C) and in doses without a T/C. Other doses and runs of a compound stand elsewhere. T/C is the treated group as % of the vehicle group. Some doses have a count of surviving animals in place of a T/C: the source holds a T/C of zero for them, seemingly a mark for toxic or unscored doses. Some doses without a T/C left all or most animals alive at the check, yet need not have been tolerated: survival well below the control is almost never listed, so the zero probably covers shortened survival too. Counts of survivors are from the toxicity check (mostly the fifth day) where no day follows; animals may have died later. Schedules are NCI's codes, read here as Q, the interval in days (D) or hours (H), X, the number of doses. Some doses were run more than once; the values are given in rising order. Some schedules carry Z or #; the key to these is not given. Brackets with × give the number of equal values in this list. Where survival is the endpoint, this PubChem deposit counts one and a half times the control or more as active, and values a quarter to a half above the control carry no call in these data; other NCI protocols may use other cut-offs. Some T/C values carry the count of animals alive at the toxicity check (mostly the fifth day); without a count, all were alive then.
Tested on: L1210 leukemia ip in BDF1 mice, survival T/C
Test: NCI In Vivo Anticancer Drug Screen. Data for tumor model L1210 Leukemia (intraperitoneal) in B6D2F1 (BDF1) mice
Conditions: T/C endpoint: mean survival time, higher T/C = longer survival
[1] = dose: 100.0 mg/kg/injection, schedule: Q04DX003 (ip), vehicle: saline
[2] = dose: 200.0 mg/kg/injection, schedule: Q04DX003 (ip), vehicle: saline
[3] = dose: 400.0 mg/kg/injection, schedule: Q04DX003 (ip), vehicle: saline
[4] = dose: 50.0 mg/kg/injection, schedule: Q04DX003 (ip), vehicle: saline
[5] = dose: 400.0 mg/kg/injection, schedule: Q04DX003 (ip), vehicle: saline with Tween-80
[6] = dose: 200.0 mg/kg/injection, schedule: Q01DX009 (ip), vehicle: saline with Tween-80
[7] = dose: 400.0 mg/kg/injection, schedule: Q01DX001 (ip), vehicle: carboxymethylcellulose (CMC)
[8] = dose: 100.0 mg/kg/injection, schedule: Q04DX002 (ip), vehicle: Klucel (hydroxypropylcellulose) (HPC)
[9] = dose: 400.0 mg/kg/injection, schedule: Q04DX002 (ip), vehicle: Klucel (hydroxypropylcellulose) (HPC)
[10] = dose: 100.0 mg/kg/injection, schedule: Q01DX009 (ip), vehicle: saline
[11] = dose: 200.0 mg/kg/injection, schedule: Q01DX009 (ip), vehicle: saline
[12] = dose: 400.0 mg/kg/injection, schedule: Q01DX009 (ip), vehicle: saline
[13] = dose: 200.0 mg/kg/injection, schedule: Q01DX001 (ip), vehicle: Klucel (hydroxypropylcellulose) (HPC)
[14] = dose: 100.0 mg/kg/injection, schedule: Q04DX003 (ip), vehicle: saline with Tween-80
[15] = dose: 200.0 mg/kg/injection, schedule: Q04DX003 (ip), vehicle: saline with Tween-80

OC(CCl)CBr (configuration not stated)
survivor count [1]: 6 of 6 | survivor count [2]: 0 of 6 | survivor count [3]: 0 of 6

COc1cc([N+](=O)[O-])ccc1NC(=O)N(C1CCCCC1)C1CCCCC1
survivor count (dose: 200.0 mg/kg/injection, schedule: Q04DX002 (ip), vehicle: saline with Tween-80): 3 of 3 and 6 of 6

O=C(C[n+]1cccc(Cl)c1)c1ccccc1
survivor count (dose: 12.5 mg/kg/injection, schedule: Q04DX003 (ip), vehicle: saline): 0 of 6 | survivor count (dose: 25.0 mg/kg/injection, schedule: Q04DX003 (ip), vehicle: saline): 0 of 6 | survivor count [4]: 0 of 6 | survivor count [1]: 0 of 6 | survivor count [2]: 0 of 6 | survivor count [3]: 0 of 6

CS/C(N)=N\N=C/c1ccccc1
survivor count [4]: 3 of 6 | survivor count [1]: 0 of 6 | survivor count (dose: 200.0 mg/kg/injection, schedule: Q01DX001 (ip), vehicle: saline): 0 of 6 | survivor count (dose: 400.0 mg/kg/injection, schedule: Q01DX001 (ip), vehicle: saline): 0 of 6

N#Cc1ccc(C(CCCCC(Cc2ccccc2)c2ccc(C#N)cc2)Cc2ccccc2)cc1 (configuration not stated)
survivor count (dose: 100.0 mg/kg/injection, schedule: Q01DX001 (ip), vehicle: saline): 2 of 4

NC(=O)C1(NC2CCCCC2)CCN(Cc2ccccc2)CC1
survivor count (dose: 400.0 mg/kg/injection, schedule: Q04DX003 (ip), vehicle: gum acacia): 0 of 6

CCCCNCCC[P+](c1ccccc1)(c1ccccc1)c1ccccc1
survivor count (dose: 100.0 mg/kg/injection, schedule: Q04DX002 (ip), vehicle: saline): 3 of 3 | survivor count (dose: 200.0 mg/kg/injection, schedule: Q04DX002 (ip), vehicle: saline): 1 of 3 | survivor count (dose: 400.0 mg/kg/injection, schedule: Q04DX002 (ip), vehicle: saline): 0 of 3

COc1ccccc1C(=O)C=C(C(F)(F)F)C(F)(F)F
survivor count [5]: 3 of 6

CN(c1ccccc1)c1cc(N)nc(N)n1
survivor count (dose: 12.0 mg/kg/injection, schedule: Q01DX Z (ip), vehicle: methylcellulose (MC)): 5 of 6 | survivor count (dose: 25.0 mg/kg/injection, schedule: Q01DX Z (ip), vehicle: methylcellulose (MC)): 1 of 6 | survivor count (dose: 50.0 mg/kg/injection, schedule: Q01DX Z (ip), vehicle: methylcellulose (MC)): 6 of 6 | survivor count (dose: 100.0 mg/kg/injection, schedule: Q01DX Z (ip), vehicle: methylcellulose (MC)): 0 of 6 | survivor count (dose: 200.0 mg/kg/injection, schedule: Q01DX Z (ip), vehicle: methylcellulose (MC)): 0 of 6

COc1cc(C=Nc2ccc(Oc3ccc(Cl)cc3)cc2)cc(OC)c1OC
survivor count (dose: 400.0 mg/kg/injection, schedule: Q01DX009 (ip), vehicle: Klucel (hydroxypropylcellulose) (HPC)): 5 of 6

COc1cccc(NC(=O)Nc2ccccc2C(F)(F)F)c1
survivor count (dose: 25.0 mg/kg/injection, schedule: Q01DX009 (ip), vehicle: saline with Tween-80): 6 of 6 | survivor count (dose: 100.0 mg/kg/injection, schedule: Q01DX009 (ip), vehicle: saline with Tween-80): 6 of 6 | survivor count [6]: 6 of 6 | survivor count (dose: 400.0 mg/kg/injection, schedule: Q01DX009 (ip), vehicle: saline with Tween-80): 6 of 6

CCC1(CC2CCCN(C)C2)c2ccccc2Sc2ccccc21 (configuration not stated)
survivor count (dose: 128.0 mg/kg/injection, schedule: Q01DX015 (ip), vehicle: carboxymethylcellulose (CMC)): 0 of 6 | survivor count (dose: 256.0 mg/kg/injection, schedule: Q01DX015 (ip), vehicle: carboxymethylcellulose (CMC)): 0 of 6

CCOC(=O)c1ccc(OC(=O)Nc2ccc(F)cc2)cc1
survivor count (dose: 200.0 mg/kg/injection, schedule: Q01DX009 (ip), vehicle: carboxymethylcellulose (CMC)): 4 of 6

CCCCCCCC/C=N/Nc1nnc(N/N=C/CCCCCCCC)c2ccccc12
survivor count (dose: 266.0 mg/kg/injection, schedule: Q01DX001 (ip), vehicle: carboxymethylcellulose (CMC)): 1 of 4 | T/C [7]: 125 % of control | survivor count [7]: 1 of 4 | survivor count (dose: 600.0 mg/kg/injection, schedule: Q01DX001 (ip), vehicle: carboxymethylcellulose (CMC)): 0 of 4

CN/C([S-])=N/N=C/C(=N/N=C(\[S-])NC)c1ccccc1.[Zn+2]
survivor count (dose: 25.0 mg/kg/injection, schedule: Q04DX002 (ip), vehicle: Klucel (hydroxypropylcellulose) (HPC)): 0 of 3 and 1 of 3 | survivor count (dose: 50.0 mg/kg/injection, schedule: Q04DX002 (ip), vehicle: Klucel (hydroxypropylcellulose) (HPC)): 0 of 3 | survivor count [8]: 0 of 3 (2×) | survivor count (dose: 200.0 mg/kg/injection, schedule: Q04DX002 (ip), vehicle: Klucel (hydroxypropylcellulose) (HPC)): 0 of 3 | survivor count [9]: 0 of 3

NC(CSC(c1ccccc1)(c1ccccc1)c1ccc2ccccc2c1)C(=O)O (configuration not stated)
T/C (dose: 1.1 mg/kg/injection, schedule: Q01DX009 (ip), vehicle: saline): 138 % of control [5 of 6 alive] | T/C (dose: 1.7 mg/kg/injection, schedule: Q01DX009 (ip), vehicle: saline): 128 % of control | T/C (dose: 12.5 mg/kg/injection, schedule: Q01DX009 (ip), vehicle: other): 137 % of control | survivor count (dose: 25.0 mg/kg/injection, schedule: Q01DX009 (ip), vehicle: saline): 6 of 6 | survivor count (dose: 50.0 mg/kg/injection, schedule: Q01DX009 (ip), vehicle: other): 6 of 6 | survivor count (dose: 50.0 mg/kg/injection, schedule: Q01DX009 (ip), vehicle: saline): 5 of 6 | survivor count (dose: 100.0 mg/kg/injection, schedule: Q01DX009 (ip), vehicle: other): 6 of 6 | survivor count [10]: 6 of 6 | survivor count [11]: 5 of 6 | survivor count (dose: 300.0 mg/kg/injection, schedule: Q01DX009 (ip), vehicle: saline): 3 of 6 | survivor count [12]: 0 of 6

Nc1ccc(C(=O)O)cc1S(=O)(=O)O
survivor count [13]: 1 of 3 | survivor count (dose: 400.0 mg/kg/injection, schedule: Q01DX001 (ip), vehicle: Klucel (hydroxypropylcellulose) (HPC)): 0 of 3

CC(=O)NNC(=O)Nc1cccc(C(F)(F)F)c1
survivor count [6]: 1 of 3

O=C(Nc1ccc(N=C(c2ccccc2)N2CCOCC2)cc1)c1ccc(C(=O)Nc2ccc(N=C(c3ccccc3)N3CCOCC3)cc2)cc1
survivor count (dose: 500.0 mg/kg/injection, schedule: Q01DX Z (ip), vehicle: carboxymethylcellulose (CMC)): 6 of 6

CCC(C)(O)C#CC#CC(C)(O)CC (configuration not stated)
survivor count [14]: 3 of 3 | survivor count [15]: 2 of 3 | survivor count [5]: 0 of 3

COc1cc(C(=Nc2ccccc2)C(=Nc2ccccc2)c2cc(OC)c(OC)c(OC)c2)cc(OC)c1OC
T/C (dose: 100.0 mg/kg/injection, schedule: Q01DX009 (ip), vehicle: Klucel (hydroxypropylcellulose) (HPC)): 131 % of control

C#CC[N+](CC#C)(CC#C)CC#C
survivor count [10]: 1 of 6 | survivor count [11]: 0 of 6 | survivor count [12]: 0 of 6

O=C1C=CC(=O)N1c1ccc(Cl)cc1Cl
survivor count [14]: 0 of 3 | survivor count [15]: 0 of 3 | survivor count [5]: 0 of 3

N#C/C(=C\c1ccc(-c2ccccc2)cc1)c1ccc([N+](=O)[O-])cc1
survivor count (dose: 50.0 mg/kg/injection, schedule: Q01DX009 (ip), vehicle: saline with Tween-80): 6 of 6

O=C(C1CCC2c3ccccc3CCC2C1C(=O)N1CCCCC1)N1CCCCC1 (configuration not stated)
survivor count [7]: 1 of 6

Cc1nc(N)[nH]c(=O)c1CCCNC(=O)c1cccc(CBr)c1
survivor count [8]: 3 of 3 | survivor count [13]: 3 of 6 | survivor count [9]: 1 of 3

Source: PubChem BioAssay AID248 (DTP/NCI, 2004)
